Results from PubChem BioAssay (EPA / NIEHS).
Values joined by “and” are separate entries in the source; they are usually repeats but may differ in a detail not shown here. Equal values may be shown once. This list was built around the results that the source calls inconclusive (neither active nor inactive); the mix of calls is not that of the screen. For part of these data: A potency beside an inconclusive call is a rough fit, not a confirmed value. Some structures have more than one record in an assay (separate samples or runs), and their calls can disagree. Active and inactive are the calls of the source. Rule for the calls: active = hit-call score of the fitted dose curve at least 0.9, where 1 is the maximum; inconclusive = response in the unintended direction; inactive = score below 0.9.

Chains of the proteins cited; added tags and fusions are not shown. Lines headed by an entry give the natural chain unless they say otherwise; changes in a name come on top.
UniProt P19793: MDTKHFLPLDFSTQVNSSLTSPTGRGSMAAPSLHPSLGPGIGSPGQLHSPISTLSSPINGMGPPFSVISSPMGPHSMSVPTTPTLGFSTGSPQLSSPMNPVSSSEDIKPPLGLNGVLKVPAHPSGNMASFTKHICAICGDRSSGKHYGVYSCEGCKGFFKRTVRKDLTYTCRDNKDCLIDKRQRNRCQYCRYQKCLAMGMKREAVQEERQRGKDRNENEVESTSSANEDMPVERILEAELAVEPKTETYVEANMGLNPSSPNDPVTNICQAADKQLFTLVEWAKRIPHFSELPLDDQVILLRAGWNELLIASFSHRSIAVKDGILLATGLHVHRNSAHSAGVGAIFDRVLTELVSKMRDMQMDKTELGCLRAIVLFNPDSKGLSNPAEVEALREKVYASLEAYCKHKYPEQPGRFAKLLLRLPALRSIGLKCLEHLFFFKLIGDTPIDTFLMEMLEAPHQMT
UniProt P04637, whole entry, looked up: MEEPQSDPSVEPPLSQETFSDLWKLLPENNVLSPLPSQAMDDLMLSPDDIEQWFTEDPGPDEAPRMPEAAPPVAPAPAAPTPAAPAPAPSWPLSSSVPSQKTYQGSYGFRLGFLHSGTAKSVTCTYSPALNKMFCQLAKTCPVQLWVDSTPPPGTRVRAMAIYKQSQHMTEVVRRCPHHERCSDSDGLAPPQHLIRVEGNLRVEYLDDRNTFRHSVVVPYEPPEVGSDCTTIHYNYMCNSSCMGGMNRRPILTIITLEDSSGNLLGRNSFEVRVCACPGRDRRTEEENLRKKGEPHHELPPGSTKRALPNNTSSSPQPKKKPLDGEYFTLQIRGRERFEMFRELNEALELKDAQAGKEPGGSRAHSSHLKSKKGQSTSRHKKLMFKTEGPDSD
UniProt P37231: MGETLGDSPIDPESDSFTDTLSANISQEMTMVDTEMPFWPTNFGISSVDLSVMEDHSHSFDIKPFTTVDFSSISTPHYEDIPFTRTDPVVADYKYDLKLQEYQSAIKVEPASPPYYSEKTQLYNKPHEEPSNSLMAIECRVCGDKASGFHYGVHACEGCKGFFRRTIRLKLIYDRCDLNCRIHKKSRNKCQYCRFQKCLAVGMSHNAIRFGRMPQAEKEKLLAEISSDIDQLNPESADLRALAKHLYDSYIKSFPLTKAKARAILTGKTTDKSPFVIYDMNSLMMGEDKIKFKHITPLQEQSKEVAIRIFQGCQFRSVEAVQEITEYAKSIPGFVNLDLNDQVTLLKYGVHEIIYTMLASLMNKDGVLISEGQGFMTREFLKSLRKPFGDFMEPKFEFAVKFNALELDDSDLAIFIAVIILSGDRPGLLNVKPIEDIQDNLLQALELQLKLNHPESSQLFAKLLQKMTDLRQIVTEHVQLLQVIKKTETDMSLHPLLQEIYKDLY

Key:
[1] = target: Retinoic acid receptor RXR-alpha (Homo sapiens) (UniProt P19793); assay: OT_NURR1_NURR1RXRa_0480: Odyssey Thera (OT) 8-hour HEK293T Protein Complementation Assay for Nurr1/retinoid X receptor (RXR) (AID 2283385)
Method in brief: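 Gain in fluorescent complementation signal over DMSO, measured 8 hours after chemical dosing of human kidney HEK293T cells, indicated enhanced Nurr1–RXRα association.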

[2] = target: Retinoic acid receptor RXR-alpha (Homo sapiens) (UniProt P19793); assay: OT_NURR1_NURR1RXRa_1440: Odyssey Thera (OT) 24-hour HEK293T Protein Complementation Assay for Nurr1/retinoid X receptor (RXR) (AID 2283386)
Method in brief: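 Cell-based binding reporter: HEK293T cells, 24 h exposure, fluorescence-detected fragment complementation, DMSO as baseline.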

[3] = target: Cellular tumor antigen p53 (Homo sapiens) (UniProt P04637); assay: TOX21_p53_BLA_p3_ratio: Tox21 HCT-116 p53 Agonism Beta-lactamase Assay, Ratio, Phase 3 (AID 2283596)
Method in brief: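 Cells were seeded at 4000/well, rested 5 h at 37C, then dosed with DMSO compound solutions (217-fold dilution) for 16 h. CCF4-AM substrate was loaded for 2 h at room temperature, and the 460/530 nm emission ratio was fitted for gain of signal versus DMSO.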

[4] = TOX21_p53_BLA_p4_viability: Viability Assessment in the Tox21 HCT-116 p53 Agonism Beta-lactamase Assay, Phase 4 (AID 2283597);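 note: hits lower the luminescence signal meaning cytotoxicity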
Method in brief: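 Viability is taken as cellular ATP: after 16 h compound exposure of HCT116 cells and a 2 h room-temperature CCF4-AM substrate step, CellTiter-Glo reagent is added and luminescence is measured 30 min later.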

[5] = target: Cellular tumor antigen p53 (Homo sapiens) (UniProt P04637); assay: TOX21_p53_BLA_p5_ratio: Tox21 HCT-116 p53 Agonism Beta-lactamase Assay, Ratio, Phase 5 (AID 2283599)
Method in brief: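 HCT-116 cells carrying a p53-inducible beta-lactamase reporter were seeded at 4000 cells/well and dosed after 5 h with compound in DMSO (217-fold dilution). After 16 h at 37C, CCF4-AM substrate was added for 2 h, and the 460/530 nm emission ratio was scored as gain-of-signal versus DMSO.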

[6] = TOX21_p53_BLA_p5_viability: Viability Assessment in the Tox21 HCT-116 p53 Agonism Beta-lactamase Assay, Phase 5 (AID 2283600)
Method in brief: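 Viability is taken from cellular ATP content, measured by luciferase luminescence in the same wells after the beta-lactamase ratio read. Cells are seeded at 4000 per well and exposed to DMSO-dissolved compounds, diluted 217-fold, for 16 h.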

[7] = Tanguay_ZF_120hpf_YSE_legacy: (Legacy) Oregon State University Tanguay Lab 120 Hour Post-fertilization zebrafish Assay for Yolk Sac Edema (AID 2283634);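 note: actives raise the incidence of yolk sac edema above the DMSO baseline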
Method in brief: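 Readout: presence or absence of yolk sac edema at 120 hpf, fitted upward against DMSO controls. Exposure ran statically from 6 hpf in dechorionated embryos kept at 28C.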

[8] = Tanguay_ZF_120hpf_AXIS_legacy: (Legacy) Oregon State University Tanguay Lab 120 Hour Post-fertilization zebrafish Assay for Body Axis Malformation (AID 2283635);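 note: potency for an increased fraction of larvae scored with body axis malformation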
Method in brief: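 Static 6–120 hpf chemical exposure of dechorionated wild-type 5D zebrafish, one per well at 28C; morphology endpoint scored binary at 120 hpf relative to DMSO control.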

[9] = Tanguay_ZF_120hpf_JAW_legacy: (Legacy) Oregon State University Tanguay Lab 120 Hour Post-fertilization zebrafish Assay for Jaw Malformation (AID 2283638);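 for AC50: active means more embryos with jaw malformation than DMSO controls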
Method in brief: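 Static waterborne exposure of dechorionated wild-type (Tropical 5D) zebrafish from 6 to 120 hpf at 28C, 0.64% DMSO vehicle; 5uM trimethyltin chloride served as positive control. Jaw morphology recorded as binary at 120 hpf.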

[10] = ATG_XTT_Cytotoxicity: Cytotoxicity Assessment in the Attagene TRANS-FACTORIAL HepG2 Assay (AID 2283584);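 for AC50: XTT signal for cell number as viability in transfected HepG2 cells; cells exposed to compound for 24 h before reading; active means loss of viability signal versus DMSO baseline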
Method in brief: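 Transfect HepG2 with GAL4-UAS reporter units, dose compound, incubate 24 h, then measure viable cell number by XTT. Fit concentration response against DMSO baseline.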

[11] = TOX21_p53_BLA_p2_viability: Viability Assessment in the Tox21 HCT-116 p53 Agonism Beta-lactamase Assay, Phase 2 (AID 2283591);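 note: compound exposure lasted 16 h at 37 °C; actives lower the ATP signal meaning cytotoxicity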
Method in brief: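 HCT-116 p53-bla cells (4000/well) rested 5 h at 37C, then received compounds in DMSO (217-fold dilution) for 16 h at 37C, 5% CO2. After the CCF4 read, CellTiter-Glo was added; ATP luminescence was read after 30 min at room temperature.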

[12] = TOX21_p53_BLA_p3_viability: Viability Assessment in the Tox21 HCT-116 p53 Agonism Beta-lactamase Assay, Phase 3 (AID 2283593);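 note: cells exposed to compound for 16 h before reading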
Method in brief: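 HCT-116 cells (4000/well) rested 5 h at 37C, then got DMSO compounds by pin tool (217-fold dilution) for 16 h at 37C, 5% CO2. After the bla read, CellTiter-Glo was added and luminescence read at 30 min, room temperature.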

[13] = target: Cellular tumor antigen p53 (Homo sapiens) (UniProt P04637); assay: TOX21_p53_BLA_p2_ratio: Tox21 HCT-116 p53 Agonism Beta-lactamase Assay, Ratio, Phase 2 (AID 2283592)
Method in brief: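 Cleaved-to-uncleaved substrate ratio (460 vs 530 nm) measured in HCT116 cells with an inducible beta-lactamase reporter linked to p53 activity. Compounds incubated 16 h at 37C before 2 h room-temperature CCF4-AM loading.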

[14] = target: Cellular tumor antigen p53 (Homo sapiens) (UniProt P04637); assay: TOX21_p53_BLA_p4_ratio: Tox21 HCT-116 p53 Agonism Beta-lactamase Assay, Ratio, Phase 4 (AID 2283601)
Method in brief: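 HCT116 cells carrying an inducible beta-lactamase reporter were plated at 4000 cells/well, rested 5 h, then exposed to compounds in DMSO (217-fold dilution) for 16 h at 37C. CCF4-AM substrate was loaded 2 h at room temperature; 460/530 nm emission ratio scored gain-of-signal versus DMSO.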

[15] = Tanguay_ZF_120hpf_SNOU_legacy: (Legacy) Oregon State University Tanguay Lab 120 Hour Post-fertilization zebrafish Assay for Snout Malformation (AID 2283637)
Method in brief: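 Dechorionated zebrafish, individually housed from 6 hpf in covered, sealed wells at 28C with 0.64% DMSO vehicle, were examined at 120 hpf for snout malformation. Responses were binary and analysed positive-direction relative to DMSO.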

[16] = Tanguay_ZF_120hpf_EYE_legacy: (Legacy) Oregon State University Tanguay Lab 120 Hour Post-fertilization zebrafish Assay for Eye Malformation (AID 2283636);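 note: binary presence or absence of eye malformation scored by brightfield in 120 hpf larvae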
Method in brief: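 Static waterborne exposure of dechorionated zebrafish embryos (strain Tropical 5D), 6 to 120 hpf, sealed plates at 28C, 0.64% DMSO vehicle. Eye malformation is scored as a binary endpoint, with gain of signal analysed relative to DMSO.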

[17] = target: Peroxisome proliferator-activated receptor gamma (Homo sapiens) (UniProt P37231); assay: OT_PPARg_PPARgSRC1_1440: Odyssey Thera (OT) 24-hour Protein-Complementation Assay for Peroxisome Proliferator-activated Receptor Gamma/ SRC-1 Co-activator (AID 2283388);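 note: nuclear to cytoplasmic ratio of reconstituted Venus YFP fluorescence in fixed imaged cells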
Method in brief: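 Transient HEK293T, YFP fragments 1-158/159-239 (mutant IFP1/IFP2) fused to PPARg/SRC-1; 24 h dosing; fix 4% formaldehyde, Draq5; Opera imaging 488/635 nm; N/C ratio, gain vs DMSO.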

Measured: AC50

O=C1CN(N=Cc2ccc([N+](=O)[O-])o2)C(=O)N1
inconclusive: [1] 50 µM | [2] 11.2 µM and 35.5 µM | [4] 0.00244 µM | [5] 23 µM | [6] 0.00182 µM | [7] 1.27 µM | [8] 4.91 µM | [9] 143 µM
inactive: [3] | [4]

O=Cc1ccccc1C=O
inconclusive: [1] 50 µM | [2] 50 µM | [9] 19.3 µM

COCC(C)O (centres undefined)
inconclusive: [1] 12.3 µM | [11] 46.1 µM and 1.63 µM | [12] 46.1 µM and 98.4 nM | [4] 47 µM
inactive: [10] | [4]

Cc1cc(C)c(C)cc1C
inconclusive: [10] 100 µM | [11] 46.1 µM and 46.3 µM | [13] 46.3 µM | [12] 46.1 µM and 82.9 µM | [3] 46.1 µM | [4] 46.1 µM and 46.3 µM | [6] 46.3 µM | [14] 46.3 µM
inactive: [1] | [13] | [6]

CCCCCCCCCCCCCC(=O)O
inactive: [12]
inconclusive: [1] 50 µM | [10] 100 µM | [5] 0.000117 µM | [14] 46.1 µM

CCCCCCCCO
inconclusive: [1] 17.5 µM and 51.5 µM | [10] 0.0852 µM | [11] 9.48 µM | [3] 47.7 µM | [4] 82.9 µM and 31 µM | [5] 47.7 µM and 46.3 µM | [14] 46.3 µM | [8] 117 µM
inactive: [14] | [15] | [9]

O=C(O)c1ccccc1C(=O)O
inconclusive: [1] 51 µM | [11] 0.000244 µM | [13] 47.3 µM | [12] 47.3 µM | [3] 80.7 µM
inactive: [10] | [11] | [4]

Oc1ccc(O)cc1
active: [11] 72.8 µM and 70 µM | [13] 20.2 µM | [12] 42.5 µM and 61.1 µM and 38.2 µM | [3] 21.4 µM | [4] 47.1 µM and 70.6 µM and 36.2 µM | [6] 17 µM and 35.8 µM and 37.7 µM
inactive: [1] | [10] | [11] | [13] | [15]

OC1CCCCCCCCCCC1
inactive: [2]
inconclusive: [1] 50 µM | [4] 46.1 µM | [5] 46.1 µM

O=C=NCCCCCCN=C=O
inactive: [13]
inconclusive: [1] 51 µM | [10] 20.1 µM | [11] 7.1 nM and 382 nM | [13] 45.2 µM | [12] 46.8 µM | [4] 75.7 µM and 45.2 µM | [14] 45.2 µM | [16] 26.9 µM

Cc1ccc(N)cc1O
inactive: [13] | [3] | [4] | [5] | [6] | [9]
inconclusive: [1] 50 µM | [17] 50 µM | [10] 100 µM | [7] 2.05 µM | [8] 202 µM

CCCCCCCCCCCCc1ccc(O)cc1
inconclusive: [1] 32.3 µM
active: [10] 50.4 µM | [12] 39.9 µM | [3] 49.9 µM | [4] 16.3 µM | [5] 52.1 µM | [6] 24 µM | [14] 28.3 µM
